This is an account of results in PMC4439085.

The chains behind the UniProt entries cited, without tags or fusion partners.
UniProt P40235: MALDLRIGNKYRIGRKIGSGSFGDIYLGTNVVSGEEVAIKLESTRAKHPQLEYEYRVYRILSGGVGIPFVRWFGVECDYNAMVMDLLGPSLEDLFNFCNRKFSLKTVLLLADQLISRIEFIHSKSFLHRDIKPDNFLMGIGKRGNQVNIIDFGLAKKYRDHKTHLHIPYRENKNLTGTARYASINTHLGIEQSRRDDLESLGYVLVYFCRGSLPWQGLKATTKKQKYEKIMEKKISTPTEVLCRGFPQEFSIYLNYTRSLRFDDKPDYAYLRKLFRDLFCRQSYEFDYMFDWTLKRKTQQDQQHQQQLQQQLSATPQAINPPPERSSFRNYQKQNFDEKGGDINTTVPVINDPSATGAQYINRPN

No constants are given. Whether binding was seen depends on the method and setting. Binding seen in cells or lysates may run through a third protein. These calls come from enrichment with a bait or labelling near it, and not all partners need be listed. For part of these data: No binding means not detected with the bait. For part of these data: Where a sequence is shown, tags or fusion partners need not be part of it.

The target of test [1] is T1, Hhp2-TAP (Schizosaccharomyces pombe) (UniProt P40236).
T1 sequence: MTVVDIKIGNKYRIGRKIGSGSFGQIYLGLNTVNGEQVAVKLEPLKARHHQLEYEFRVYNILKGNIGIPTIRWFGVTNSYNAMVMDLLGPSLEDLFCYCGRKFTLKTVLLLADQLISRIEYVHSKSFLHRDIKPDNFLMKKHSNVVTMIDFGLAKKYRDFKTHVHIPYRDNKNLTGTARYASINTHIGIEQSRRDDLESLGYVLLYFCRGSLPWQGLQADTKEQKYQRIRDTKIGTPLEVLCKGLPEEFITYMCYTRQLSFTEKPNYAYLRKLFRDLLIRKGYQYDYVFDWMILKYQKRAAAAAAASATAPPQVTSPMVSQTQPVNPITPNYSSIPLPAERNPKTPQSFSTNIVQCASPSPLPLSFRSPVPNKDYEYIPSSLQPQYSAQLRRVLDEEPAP
As to the kind of experiment: affinity purification with mass spectrometry; tandem affinity purification (IgG Sepharose, TEV cleavage, calmodulin Sepharose) of TAP-tagged proteins from extracts of meiotically induced cells harvested 2.5-3.5 hr after induction; IPP150 buffer (50 mM Tris-HCl pH 8.0, 150 mM NaCl, 10% glycerol, 0.1% NP-40); eluates analysed by LC-MS/MS.

Test [2] concerns the target T1, Hhp2-TAP (Schizosaccharomyces pombe). Nature of the test: affinity purification with mass spectrometry; tandem affinity purification (IgG Sepharose, TEV cleavage, calmodulin Sepharose) of TAP-tagged proteins from extracts of mitotically growing cells; IPP150 buffer; eluates analysed by LC-MS/MS.
The target of test [3] is Hhp1-TAP (Schizosaccharomyces pombe) (UniProt P40235). As to the kind of experiment: affinity purification with mass spectrometry; tandem affinity purification (IgG Sepharose, TEV cleavage, calmodulin Sepharose) of TAP-tagged proteins from extracts of meiotically induced cells harvested 2.5-3.5 hr after induction; IPP150 buffer (50 mM Tris-HCl pH 8.0, 150 mM NaCl, 10% glycerol, 0.1% NP-40); eluates analysed by LC-MS/MS.

For test [4] the target is unchanged. As to the kind of experiment: affinity purification with mass spectrometry; tandem affinity purification (IgG Sepharose, TEV cleavage, calmodulin Sepharose) of TAP-tagged proteins from extracts of mitotically growing cells; IPP150 buffer; eluates analysed by LC-MS/MS.

With “Hhp1 (from UniProt P40235 1-365) (enzyme)”, the binding entry was “binds” in test [1] and “no binding (only in mitotically growing cells)” in test [2].

B1: Rec8 (protein, UniProt P36626 1-561)
chain: MFYNQDVLTKEKGGMGVIWLAATLGSKHSLRKLHKKDIMSVDIDEACDFVAFSPEPLALRLSSNLMIGVTRVWAHQYSFFHSQVSTLHLRVRKELDHFTSKPFKNIDIQNEQTNPKQLLLAEDPAFIPEVSLYDAFNLPSVDLHVDMSSFTQPKENPNISVLETLPDSTSYLINTSQNYSLRNNVSSFVYEDSRAFSTEEPLDFEFDENGDIQELTKGTINSDPSLQAASQHSNLGSVQREYNSEEQESRIHMFEIDEDVLPLPVPLQSVMDSEHNENEPRALKRRKVQKLLEPDENIELSTRTLSQWRKNYVERMIALEATKYVRRRGASSAKKKELNKFFDWESFHPLLKPWIEKLKPSNNTPSEIDDVLRNIDTSEVEVGRDVQGELGLNIPWNTSSRSNSAINSKSHSQTGSEHSTPLLDTKYRKRLPHSPSMPSRVEFLPALESSQFHETLNSELSLQLSDDFVLYKNTQEENAHLMLSMEKECANFYEYAKTAIYENNGRITFSSLLPNDLKRPVVAQAFSHLLSLATKSAFLVKQDKPYSEISVSLNLKSTDAI
As for B1, the binding entry in test [1] and in test [3] was “binds” throughout.

B2: Psm3 (protein, UniProt O42649 1-1194)
chain: MYITKIVIQGFKSYKDYTVIEPLSPHHNVIVGRNGSGKSNFFAAIRFVLSDAYTHLSREERQALLHEGPGATVMSAYVEVTFANADNRFPTGKSEVVLRRTIGLKKDEYSLDKKTVSKTEVINLLESAGFSRSNPYYIVPQGRVTSLTNAKDSERLELLKEVAGTQIYENRRAESNKIMDETIQKSEKIDELLQYIEERLRELEEEKNDLAVYHKKDNERRCLEYAIYSREHDEINSVLDALEQDRIAALERNDDDSGAFIQREERIERIKAEITELNHSLELLRVEKQQNDEDYTNIMKSKVALELQSSQLSRQIEFSKKDESSKLNILSELESKISEKENELSEILPKYNAIVSEADDLNKRIMLLKNQKQSLLDKQSRTSQFTTKKERDEWIRNQLLQINRNINSTKENSDYLKTEYDEMENELKAKLSRKKEIEISLESQGDRMSQLLANITSINERKENLTDKRKSLWREEAKLKSSIENVKDDLSRSEKALGTTMDRNTSNGIRAVKDIAERLKLEGYYGPLCELFKVDNRFKVAVEATAGNSLFHIVVDNDETATQILDVIYKENAGRVTFMPLNKLRPKAVTYPDASDALPLIQYLEFDPKFDAAIKQVFSKTIVCPSIETASQYARSHQLNGITLSGDRSDKKGALTAGYRDYRNSRLDAIKNVKTYQIKFSDLQESLEKCRSEIESFDQKITACLDDLQKAQLSLKQFERDHIPLKDELVTITGETTDLQESMHHKSRMLELVVLELHTLEQQANDLKSELSSEMDELDPKDVEALKSLSGQIENLSHEFDAIIKERAHIEARKTALEYELNTNLYLRRNPLKAEIGSDNRIDESELNSVKRSLLKYENKLQIIKSSSSGLEEQMQRINSEISDKRNELESLEELQHEVATRIEQDAKINERNAAKRSLLLARKKECNEKIKSLGVLPEEAFIKYVSTSSNAIVKKLHKINEALKDYGSVNKKAYEQFNNFTKQRDSLLARREELRRSQESISELTTVLDQRKDEAIERTFKQVAKSFSEIFVKLVPAGRGELVMNRRSELSQSIEQDISMDIDTPSQKSSIDNYTGISIRVSFNSKDDEQLNINQLSGGQKSLCALTLIFAIQRCDPAPFNILDECDANLDAQYRSAIAAMVKEMSKTSQFICTTFRPEMVKVADNFYGVMFNHKVSTVESISKEEAMAFVEG
Turning to B2, the binding result in test [1] and in test [3] was “binds” throughout.

B3: Hhp2 (enzyme, UniProt P40236 1-400)
chain: MTVVDIKIGNKYRIGRKIGSGSFGQIYLGLNTVNGEQVAVKLEPLKARHHQLEYEFRVYNILKGNIGIPTIRWFGVTNSYNAMVMDLLGPSLEDLFCYCGRKFTLKTVLLLADQLISRIEYVHSKSFLHRDIKPDNFLMKKHSNVVTMIDFGLAKKYRDFKTHVHIPYRDNKNLTGTARYASINTHIGIEQSRRDDLESLGYVLLYFCRGSLPWQGLQADTKEQKYQRIRDTKIGTPLEVLCKGLPEEFITYMCYTRQLSFTEKPNYAYLRKLFRDLLIRKGYQYDYVFDWMILKYQKRAAAAAAASATAPPQVTSPMVSQTQPVNPITPNYSSIPLPAERNPKTPQSFSTNIVQCASPSPLPLSFRSPVPNKDYEYIPSSLQPQYSAQLRRVLDEEPAP
With B3, the binding entry in test [3] was “binds”; in test [4], “no binding (only in mitotically growing cells)”.

B4: Psm1 (protein, UniProt O94383 1-1228)
chain: MGRLLRLEVENFKSYRGHQIIGPFEDFTSIIGPNGAGKSNLMDAISFVLGVKSSHLRSTNVKELIYRGKILQRDNTDFTDSSNPTTAYVKLMYELDNGEQREYKRAITPSGATEYKIDEEIVTFSEYCGSLQKENILVRARNFLVFQGDVETIASQSPLELSKLVEQISGSLEYKSEYDKSKDEQDKAVNLSAHSFNKKRGINAELRQYQEQKTEAERYQSQKEKRDSAQLVYLLWKLFHLEKSISSNMAEVTRLKADSIQLIERRDENTKEIEKLKEKEGSIRRNLLAFDRKVRKQEKLIASKRPELISIAEKALESKSNLRKIQRKAAEIEKDYSDQASTLQVLENQLTSLSAAEKEFLKDMQEKEQLKGLRLLPEDKEEYEGLRSEADKLNSNLLFKLQTLNRNIKVTSQSKDSLTSIVGDLESKIKSLHESVSSLDTERADLLAKINEKIESLELEKHDQQKKRLTYSELFHKTQELNEELQSCLQKILEASADRNESKQDAKKREALYALKRIYPEVKGRIIDLCTPTQKKYESAIAAALGKNFDAIVVETQAVAKECIDYIKEQRIGIMTFFPMDTIAASPVNQKFRGTHKGARLAIDVLNFESEYERVMISAVGNTLICDSMTVARDLSYNKRLNAKTVTLEGTVIHKTGLITGGSSNNRSAKHWDDHDFDLLTQTKDRLMHQIGEIEYQKSSCVITESDTVKLHSLESEISLLKDKYTVVSRSVEDKKKEIGHYESLIKEKQPHLSELEMELRNFVKSRDELQIQVEKVEEKIFSGFCKRIGISDIHTYDEIHRTFTQSFTQKQLEFTKQKSLLENRISFEKQRVSDTRLRLERMHKFIEKDQESIDNYEQNREALESEVATAEAELELLKEDFASENSKTEKILLAASEKKLVGKRLVSELTKLSGNITLLESEIDRYVSEWHAILRKCKLEDIDVPLREGSLTSIPIDDVSNSGDITMGEEPSEPVINFEKFGVEVDYDELDEELRNDGSESMASVLQEKLREYSEELDQMSPNLRAIERLETVETRLAKLDEEFAAARKAAKNAKERFNAVKQKRLQKFQAAFSHISEQIDPIYKELTKSPAFPLGGTAYLTLDDLDEPYLGGIKFHAMPPMKRFRDMDQLSGGEKTMAALALLFAIHSYQPSPFFVLDEIDAALDQTNVTKIANYIRQHASSGFQFVVISLKNQLFSKSEALVGIYRDQQENSSRTLSINLEGYVE
For B4, the binding result in test [3] is “binds”.
